Results from PubChem BioAssay AID624500 (National Center for Advancing Translational Sciences (NCATS), 2012).
Listed are the inconclusive results; actives and inactives stand elsewhere. Calls follow the shape of the dose curve; as a rule, active = well fitted inhibition curve with a large enough effect; inconclusive = small, poorly fitted or top-dose-only effect; inactive = flat fitted curve, though single readings scatter. Where the call is inconclusive, the potency comes from a doubtful curve fit.

Chains of the proteins cited; added tags and fusions are not shown.
UniProt P35462, whole entry, looked up: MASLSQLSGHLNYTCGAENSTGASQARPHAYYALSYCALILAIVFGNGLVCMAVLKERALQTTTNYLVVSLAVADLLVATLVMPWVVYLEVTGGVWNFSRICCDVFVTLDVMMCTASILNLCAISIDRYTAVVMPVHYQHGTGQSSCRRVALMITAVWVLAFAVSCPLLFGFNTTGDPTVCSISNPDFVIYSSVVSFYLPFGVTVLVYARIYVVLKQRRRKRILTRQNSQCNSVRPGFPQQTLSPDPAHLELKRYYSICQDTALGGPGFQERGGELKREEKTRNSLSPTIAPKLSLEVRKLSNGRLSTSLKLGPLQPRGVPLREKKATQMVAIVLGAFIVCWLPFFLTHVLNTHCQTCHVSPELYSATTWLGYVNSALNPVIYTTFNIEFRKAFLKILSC

Target: D(3) dopamine receptor (Homo sapiens) (UniProt P35462)
Test: HTS Assay for Allosteric Antagonists of the Human D2 Dopamine Receptor: SAR in D3 Beta Arrestin Assay
Details: DiscoveRx PathHunter D3 beta-arrestin, luminescence, 90 min
Source text: There is great interest in identifying small molecule ligands for G-protein coupled receptors (GPCRs) as nearly 50% of all FDA-approved drugs target these important receptor proteins. […] Amongst the dopamine receptors (DARs), the D2 is arguably one of the most validated drug targets in neurology and psychiatry. For instance, all receptor-based antiparkinsonian drugs primarily work via stimulating the D2 DAR, whereas all FDA-approved antipsychotic agents are antagonists of this receptor. The D2 DAR is also therapeutically targeted in other disorders such as restless legs syndrome, tardive dyskinesia, Tourette's syndrome, and hyperprolactinemia. […] This is an selectivity assay to test the lead compounds against the D3 receptor, using a beta arrestin assay. NIH Molecular Libraries Probe Production Network [MLPCN] NIH Chemical Genomics Center [NCGC] […]
DiscoveRx D3 cells were thawed from frozen stock and seeded at 2,100 cells/ 3 uL/well media (DiscoveRx Plating Reagent 2) with MultiDrop Combi dispenser (Thermo Scientific, Logan, UT) onto white tissue culture treated 1536-well Aurora plates (Brooks Automation, Chelmsford, MA) and allowed to attach overnight at 37 deg C, 5% CO2. […] The plates were incubated at ambient temperature for 1 hour and then the luminescent signal was read on ViewLux plate reader (PerkinElmer, Waltham, MA).

| SMILES | Potency |
| --- | --- |
| CCN1C(=O)c2ccccc2[S@](=O)c2ccc(C(=O)N[C@H](C)c3ccc4ccccc4c3)cc21 | inconclusive: 32.4 µM [inhibitor, full curve] |
